Each structure is given as a SMILES string. Values joined by “and” are separate entries in the source; they are usually repeats but may differ in a detail not shown here. Equal values may be shown once. The list shows a part of the results. The main result of the screen is listed elsewhere. These columns were measured beside it and carry no call. Most of these compounds were active or inconclusive in the main read-out, so they are no random draw. Words in brackets tell the shape of the fitted curve; partial curves, single points and poor fits give uncertain potencies.

The nature of the test: qHTS Assay for Modulators of Lamin A Splicing. Particulars: HeLa LMNA splicing GFP/RFP minigene ratio, 48 h. Put shortly: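 S3 HeLa cells stably expressing lamin A-EGFP splicing minigene plus DsRed2, 600 cells/well, 48 h compound exposure at 37C. Laser-scanning cytometry; analysed as GFP (500-530 nm)/RFP (575-640 nm) total intensity ratio; 0.5% DMSO vehicle.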
For orientation: qHTS replaces the single test concentration by a dilution series.

The mark [1] stands for this setting: measured here: RFP viability control channel.
Where [2] appears, read: measured here: GFP splicing reporter channel.

For the compound `O=C(CC1S/C(=N/N=C/c2c[nH]c3ccc(OCc4ccccc4)cc23)NC1=O)Nc1ccccc1` (stereo not given), the AC50 (commonly the midpoint of the concentration-response curve, whichever way the signal moves) under setting [1] was 17.8 µM [falling, partial curve, poor fit]. With `Nc1ccccc1Nc1cc(-c2cccc(Cl)c2)nn1-c1ccccc1`, the AC50 reads like this: under setting [2], 12.6 µM [rising, single point]; under setting [1], 28.2 µM [rising, partial curve].

For the compound `Cn1c(N)c(C(=O)COC(=O)c2ccc([N+](=O)[O-])o2)c(=O)n(C)c1=O`, the AC50 under setting [1] was 0.112 µM [falling, full curve]. With `O=C(Nc1ccc(Cl)cc1Cl)c1cc(S(=O)(=O)N2CCN(c3ccccc3F)CC2)ccc1F`, the AC50 by setting is: under setting [2], 0.501 µM [rising, full curve, poor fit]; under setting [1], 6.31 µM [rising, partial curve, poor fit].

As for `Cc1ccc(O)c(-c2cc(C(=O)Nc3ccc(S(=O)(=O)Nc4nc(C)cc(C)n4)cc3)[nH]n2)c1`, the AC50 under setting [1] was 11.2 µM [rising, partial curve]. On the same count and under the same terms, then `Cc1ccc(NC(=O)Nc2cccnc2)cc1NC(=O)Nc1cccnc1`, with 2.82 µM [falling, partial curve]. As to `CC(C)c1ccc(NC(=O)N2CCCC2C(=O)Nc2ccc(-n3cnnn3)cc2)cc1` (stereo not given), the AC50 is 0.562 µM [falling, full curve, poor fit] under setting [2] and 0.0631 µM [falling, full curve, poor fit] under setting [1]. For `COc1cccc(N2CCN(C(=O)c3ccc(CSc4nc5ccncc5[nH]4)cc3)CC2)c1`, the AC50 under setting [1] is 12.6 µM [rising, partial curve]. `CCC(C(=O)Nc1cccc(-c2cn3cccnc3n2)c1)c1ccccc1` (stereo not given): the AC50 under setting [2] is 5.01 µM [rising, single point]. Consider `CC1=C(C)C(=O)C(CCCCC#CCCCC#CCO)=C(C)C1=O`, for which the AC50 runs as follows: under setting [2], 3.98 µM [falling, full curve, poor fit] and 15.8 µM [rising, single point]; under setting [1], 6.31 µM [falling, single point] and 25.1 µM [rising, single point].

As to `COc1ccc(Br)cc1CNC(=O)CCCn1c(=O)c2cccn2c2ccccc21`, the AC50 is 25.1 µM [falling, partial curve] under setting [2] and 12.6 µM [falling, partial curve, poor fit] under setting [1]. For the compound `Cc1cc(C)c(/C=C(\C#N)C(N)=S)c(C)c1`, under setting [2], the AC50 is 0.316 µM [falling, full curve, poor fit]. With `O=C(Nc1ccc(Cl)cc1)C1CCN(c2nc3ccccc3n3cccc23)CC1`, the AC50 reads like this: under setting [2], 35.5 µM [falling, single point]; under setting [1], 35.5 µM [falling, single point]. Take `N=c1n(Cc2ccccc2Cl)c2ccccc2n1CC(O)c1ccco1` (stereo not given): the AC50 under setting [2] is 31.6 µM [falling, partial curve, poor fit]. Consider `NC(=S)n1[nH]c(-c2ccc([N+](=O)[O-])cc2)c(N=Nc2cccc(Cl)c2)c1=O`, for which the AC50 under setting [1] is 35.5 µM [rising, single point].

Regarding `CCCc1cc(=O)[nH]c(NCc2ccc(Cl)cc2)n1`, the AC50 runs as follows: under setting [2], 10 µM [rising, single point]; under setting [1], 25.1 µM [rising, single point].

With `COC(=O)c1cc(C)sc1NC(=O)c1cccnc1`, the AC50 was 14.1 µM [rising, single point] under setting [2] and 0.0178 µM [rising, full curve, poor fit] under setting [1]. For the compound `CCOc1ccc(NC(=O)N2CCOc3ccccc32)cc1`, the AC50 runs as follows: under setting [2], 7.94 µM [falling, partial curve, poor fit]; under setting [1], 2.51 µM [falling, full curve].

Take `CSc1ccc(S(=O)(=O)NC2CCCCCC2)cc1`: the AC50 by setting is: under setting [2], 4.47 µM [rising, single point]; under setting [1], 7.08 µM [rising, single point]. As for `Cc1ccc(Cl)cc1Nc1nc2ccccc2n2c(C)nnc12`, the AC50 under setting [2] is 0.158 µM [rising, full curve, poor fit].

Take `CN(CCOc1ccc(NS(C)(=O)=O)cc1)CCc1ccc(NS(C)(=O)=O)cc1`: the AC50 under setting [2] is 1.26 µM [falling, single point]. Still for that read-out and setting: the figure for `CCOC(=O)c1ccc(NC(=O)CN2C(=O)c3cccnc3Oc3ccc(Cl)cc32)cc1` is 35.5 µM [falling, partial curve, poor fit]. As for `COc1ccc(C(C[N+](=O)[O-])n2nc(C)cc2C)cc1` (stereo not given), the AC50 reads like this: under setting [2], 35.5 µM [falling, single point]; under setting [1], 5.01 µM [rising, partial curve, poor fit]. For `Cc1ccc(N2CCn3c2nc2c3c(=O)n(CCc3ccccc3)c(=O)n2C)cc1C`, the AC50 under setting [2] is 0.0224 µM [rising, full curve, poor fit]. With `CCOc1ccc(NC(=O)Nc2cc(OCC(F)(F)F)cc(OCC(F)(F)F)c2)cc1`, under setting [1], the AC50 is 35.5 µM [rising, single point]. For the compound `Cc1cc(C(=O)CSc2nncs2)c(C)n1-c1ccc2c(c1)OCO2`, the AC50 is, setting by setting: under setting [2], 11.2 µM [rising, single point]; under setting [1], 12.6 µM [rising, partial curve]. Consider `Cc1n[nH]c(C)c1CCc1nc2c3ccccc3nc(SCC(=O)Nc3ccccc3F)n2n1`, for which the AC50 under setting [2] is 0.316 µM [rising, partial curve, poor fit]. Regarding `Cn1c(NCC2CCCO2)nc2c1c(=O)n(Cc1ccccc1)c(=O)n2C` (stereo not given), the AC50 runs as follows: under setting [2], 3.16 µM [rising, full curve, poor fit]; under setting [1], 4.47 µM [rising, full curve].

Take `Cc1ccc(-c2cc(C(=O)N/N=C/c3c[nH]c4ccccc34)n[nH]2)o1`: under setting [1], the AC50 was 0.708 µM [rising, partial curve, poor fit]. Still for that read-out and setting: the figure for `COc1cc(/C=N/NC(=O)CCC(=O)NCc2ccccc2)cc(OC)c1OC` is 35.5 µM [rising, single point].

In the case of `Cc1cc(N2CCC(C)CC2)nc(NCc2ccccc2)n1`, the AC50 runs as follows: under setting [2], 11.2 µM [rising, partial curve]; under setting [1], 14.1 µM [rising, partial curve]. In the case of `COCCNC(=O)C1=C(N)C(C(=O)Nc2ccc(C)c(S(=O)(=O)N3CCCCC3)c2)SC1=Nc1ccc(C)cc1C` (stereo not given), under setting [1], the half-maximal activity concentration (AC50) was 15.8 µM [rising, single point]. `CCc1ccc2c(c1)C(O)(CC(=O)c1cccs1)C(=O)N2` (stereo not given): the AC50 under setting [2] was 0.0794 µM [rising, full curve, poor fit] and the AC50 under setting [1] is 5.62 µM [rising, partial curve, poor fit]. Consider `CSc1nsc(SCC(=O)Nc2ccc(Br)cn2)n1`, for which the AC50 is 11.2 µM [rising, single point] under setting [2] and 17.8 µM [rising, single point] under setting [1]. For the compound `Cc1ccc(N2C(=O)C3C4C=CC(CNC(=S)Nc5cccc(Cl)c5)(O4)C3C2=O)cc1` (stereo not given), the AC50 is, setting by setting: under setting [2], 12.6 µM [rising, single point]; under setting [1], 17.8 µM [rising, single point]. As for `O=S(=O)(c1ccccc1)c1nc(Nc2ccccc2N2CCOCC2)sc1Cl`, the AC50 by setting is: under setting [2], 3.98 µM [rising, partial curve, poor fit]; under setting [1], 15.8 µM [rising, partial curve].

In the case of `Cc1nn(-c2ccccc2)c(Cl)c1C(=O)N1CCN(c2ncnc3c2cnn3-c2ccccc2)CC1`, under setting [1], the AC50 was 15.8 µM [rising, single point]. The same measure, in the same setting: the figure for `CCC(=O)Oc1ccc(-c2nc(-c3cccnc3)no2)cc1` is 0.316 µM [falling, full curve, poor fit]. For the compound `CCOc1ccc(N2C(=O)C3ON(c4ccccc4)C(c4cccs4)C3C2=O)cc1` (stereo not given), under setting [2], the AC50 is 2.82 µM [falling, full curve, poor fit]. For `Cc1ccc(C2=N/C(=C\c3cccs3)C(=O)N2Nc2ccccc2)cc1`, the AC50 under setting [1] was 15.8 µM [rising, single point]. As for `CCOc1cc(N2CCOCC2)c(OCC)cc1NC(=O)CSc1ncccn1`, the AC50 under setting [2] is 5.62 µM [falling, partial curve]. Consider `CC(=O)c1cccc(NC(=O)N2CCCc3ccccc32)c1`, for which the AC50 under setting [1] was 0.141 µM [falling, full curve, poor fit]. On to `Cc1nc(NCc2ccco2)c2c(C)c(C)sc2n1`, for which the AC50 was 20 µM [falling, single point] under setting [2] and 31.6 µM [falling, single point] under setting [1]. With `Cc1ccc(NC(=O)c2cc(C)n(-c3ccccc3)c2C)cc1`, the AC50 reads like this: under setting [2], 35.5 µM [falling, single point]; under setting [1], 25.1 µM [falling, single point]. As for `CCCCC(=O)NC(=S)Nc1cccc(NC(=O)c2ccco2)c1`, the AC50 under setting [1] is 0.0316 µM [rising, full curve, poor fit]. Turning to `CCc1ccccc1NC(=O)CSc1nnc([C@@H]2CCCN2C(=O)OC(C)(C)C)o1`, the AC50 is 7.94 µM [falling, partial curve] under setting [2] and 15.8 µM [falling, partial curve, poor fit] under setting [1]. Turning to `Cc1ccccc1NC(=O)c1nc(-c2ccncc2)no1`, the AC50 under setting [1] is 2 µM [falling, full curve].

`CC(C)c1onc(C(=O)N(C)Cc2ccccc2)c1[N+](=O)[O-]`: the AC50 under setting [1] is 3.16 µM [falling, partial curve].

With `CCc1ccc(NC(=S)/N=C(\N)Nc2nc(C)c3cc(CC)ccc3n2)cc1`, under setting [1], the AC50 was 35.5 µM [rising, single point].

As to `O=C(CSCc1ccccc1)N/N=C/c1ccccc1OCc1ccccc1`, the AC50 was 12.6 µM [rising, single point] under setting [2] and 15.8 µM [rising, single point] under setting [1].

For the compound `Cc1cccc(NC(=S)NCc2ccc(F)cc2)c1`, the AC50 is, setting by setting: under setting [2], 12.6 µM [rising, single point]; under setting [1], 17.8 µM [rising, single point]. Consider `CCN(CC)S(=O)(=O)c1ccc(C(=O)Nc2nnc(C(C)C)s2)cc1`, for which the AC50 under setting [1] is 6.31 µM [rising, partial curve, poor fit].

The record behind these values is PubChem BioAssay AID1487 (National Center for Advancing Translational Sciences (NCATS), 2009).
